According to patent publication EP0942066A2, “Cell line of blood-brain barrier” (KYOWA HAKKO KOGYO CO., LTD., priority 1998, dated 1999):
At least one read-out could not be matched to a standard name with certainty.

Target: T1, GLUT1 (Mus musculus, UniProt P17809)
T1 construct: A band indicating the expression of GLUT-1 was confirmed in any of TM-BBB1, TM-BBB2, TM-BBB3, TM-BBB4 and TM-BBB5; endogenous in cells; host or cells: TM-BBB1 to TM-BBB5, conditionally immortalised mouse brain capillary endothelial cell lines (SV40tsA58 large T transgenic mice)
T1 sequence (P17809 1-492): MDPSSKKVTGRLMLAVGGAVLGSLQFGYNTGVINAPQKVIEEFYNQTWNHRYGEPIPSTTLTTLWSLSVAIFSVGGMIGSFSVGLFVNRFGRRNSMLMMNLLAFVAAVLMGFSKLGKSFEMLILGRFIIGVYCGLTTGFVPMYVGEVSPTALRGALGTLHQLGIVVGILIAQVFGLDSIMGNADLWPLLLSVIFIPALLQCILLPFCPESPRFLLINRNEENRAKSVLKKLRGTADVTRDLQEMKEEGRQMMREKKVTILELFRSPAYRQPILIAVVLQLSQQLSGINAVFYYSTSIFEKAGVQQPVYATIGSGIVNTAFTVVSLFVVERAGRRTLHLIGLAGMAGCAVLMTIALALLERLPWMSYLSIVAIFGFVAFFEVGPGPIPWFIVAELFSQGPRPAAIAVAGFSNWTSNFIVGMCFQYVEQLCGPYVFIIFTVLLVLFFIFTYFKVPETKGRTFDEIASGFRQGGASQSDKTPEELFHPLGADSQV
Test: Incorporation of 3-O-methyl-D-glucose (3-OMG) into brain capillary endothelial cell lines TM-BBB (glucose transfer ability)
Type: cell-based
Description: Each of TM-BBB's was plated onto a 24-well cell culture plate at a density of 3×10^5 cells/well/mℓ medium and cultured in a CO2 incubator at 33°C for 24 hours to make the cells confluent. The incorporation of 3-OMG was measured in the following manner. […] Ten seconds later, the uptake buffer was removed, and the cells were washed with the uptake buffer at 4°C. Subsequently, the uptake buffer was removed after 20 seconds, 30 seconds, 1 minute, or 10 minutes, and the cells were treated in the same manner. […] Twenty seconds later, the uptake buffer was removed, and the cells were washed with the uptake buffer at 4°C. Then, the cells were lyzed overnight with 1 mℓ PBS containing 1% Triton X-100 and then measured for radioactivity in a liquid scintillation counter. […] Pharmacobio-Dyn, 4: 879-885 (1981)] using a plot formula (V = Vmax x [S]/(Km + [S]); […]

## CO[C@@H]([C@H](O)[C@H](O)CO)[C@@H](O)C=O [3-OMG, 3-O-methyl-D-glucose]
  clearance of incorporation of [^3H]3-OMG (Vmax/Km): 6.6 µℓ/min/mg protein
